Experimental data: patent US20090175886A1 (Bristol-Myers Squibb, published 2009)
No constants are given. Whether binding was seen depends on the method and setting. Some entries that bind do so weakly or less than the wild type.

By UniProt entry, the sequences of proteins in these tests, tags left out. Residues count along the entry.
UniProt P28908, residues 19-595: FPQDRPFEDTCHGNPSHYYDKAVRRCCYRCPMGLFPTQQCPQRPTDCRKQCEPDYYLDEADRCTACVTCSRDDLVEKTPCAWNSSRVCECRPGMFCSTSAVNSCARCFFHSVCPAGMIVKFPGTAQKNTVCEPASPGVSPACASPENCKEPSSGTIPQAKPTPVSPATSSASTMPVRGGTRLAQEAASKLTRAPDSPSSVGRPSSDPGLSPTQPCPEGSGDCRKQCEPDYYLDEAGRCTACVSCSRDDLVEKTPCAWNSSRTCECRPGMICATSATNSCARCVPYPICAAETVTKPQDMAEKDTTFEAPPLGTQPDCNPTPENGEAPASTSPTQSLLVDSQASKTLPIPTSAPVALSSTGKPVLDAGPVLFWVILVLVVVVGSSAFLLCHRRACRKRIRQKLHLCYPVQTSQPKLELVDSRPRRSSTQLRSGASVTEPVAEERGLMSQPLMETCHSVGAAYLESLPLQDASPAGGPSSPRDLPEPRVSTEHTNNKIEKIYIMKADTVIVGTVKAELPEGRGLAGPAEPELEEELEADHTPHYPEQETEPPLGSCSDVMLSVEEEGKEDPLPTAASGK

Columns and labels:
[1] = molecular target: human CD30 expressed on cells (L540, L428, L1236, Karpas cell lines; activated human peripheral blood cells) (human) (UniProt P28908); test: flow cytometry on CD30-expressing L540 cells, FITC-labelled goat anti-human secondary antibody
[2] = molecular target: human CD30 expressed on cells (L540, L428, L1236, Karpas cell lines; activated human peripheral blood cells) (human) (UniProt P28908); test: flow cytometry on L540 cells (discussion of Example 7)

binding [1]: binds | binding [2]: binds
B1: 5F11 LEX^Opt mAb (glyco-optimized 5F11 produced in Lemna minor with FucT/XylT RNAi, vector MDXA04) (antibody, V domains shown)
VH: QVQLQQWGAGLLKPSETLSLTCAVYGGSFSAYYWSWIRQPPGKGLEWIGDINHGGGTNYNPSLKSRVTISVDTSKNQFSLKLNSVTAADTAVYYCASLTAYWGQGSLVTVSS
VL: DIQMTQSPTSLSASVGDRVTITCRASQGISSWLTWYQQKPEKAPKSLIYAASSLQSGVPSRFSGSGSGTDFTLTISSLQPEDFATYYCQQYDSYPITFGQGTRLEIK
notes: N-glycans at Asn 297 are 95.8% GnGn (G0), with no fucosyl or xylosyl; also called MDXA04 derived mAb; glyco-optimized anti-CD30 mAb
